Laboratory results as given in US5486601A, “Trisazo dye, and aqueous ink composition containing the same” (priority 1993, dated 1996).
The name of at least one read-out is uncertain. For at least one compound, name, drawing or mass did not settle the structure.

Test system: strain TA98
Assay: AMES test (reverse mutagenicity test), strain TA98, with and without S-9
Type: cell-based
Description: Regarding specimen solutions containing the trisazo compounds (dyes) of the present invention obtained in Examples 1 to 9 and dyes of Comparative Examples 1 to 3, respectively, the total number of the mutant colony was determined using the strain TA98. When the resulting magnification is not more than 2, it is evaluated as "negative". On the other hand, when the resulting magnification is not less than 2, it is evaluated as "positive".
In Table 1, the modification in case that no drug-metabolizing active enzyme S-9 is added is shown in the column "-" and the modification in case that a drug-metabolizing active enzyme S-9 is added is shown in the column "+".

[1] = TA98, without S9, 1250 μg/plate
[2] = TA98, without S9, 5000 μg/plate

Molecule | magnification of the total number of the mutant colony to the control (TA98, with S9, 20 μg/plate) | magnification of the total number of the mutant colony to the control (TA98, with S9, 78 μg/plate) | magnification of the total number of the mutant colony to the control (TA98, with S9, 313 μg/plate) | magnification of the total number of the mutant colony to the control (TA98, with S9, 1250 μg/plate) | magnification of the total number of the mutant colony to the control (TA98, with S9, 5000 μg/plate) | magnification of the total number of the mutant colony to the control (TA98, without S9, 20 μg/plate) | magnification of the total number of the mutant colony to the control (TA98, without S9, 78 μg/plate) | magnification of the total number of the mutant colony to the control (TA98, without S9, 313 μg/plate) | magnification of the total number of the mutant colony to the control [1] | magnification of the total number of the mutant colony to the control [2]
C.I. Direct Black 168 [Comparative Example 3, reference compound] | 1.08 | 0.88 | 1.08 | 1.38 | 3.38 |  |  |  |  | 
Nc1ccc(N=Nc2ccc(N=Nc3c(S(=O)(=O)[O-])cc4cc(S(=O)(=O)[O-])c(N=Nc5ccc(N=Nc6ccc(N)cc6N)cc5)c(O)c4c3N)cc2)c(N)c1.[Na+].[Na+] [Comparative Example 1, C.I. Direct Black 19, reference compound] | 45.36 | 130.76 | 59.20 | 20.60 | 25.61 | 2.00 | 4.45 | 9.77 | 20.05 | 33.32
Cc1cc(-c2ccc(N=Nc3c(S(=O)(=O)[O-])cc4cc(S(=O)(=O)[O-])c(N=Nc5ccccc5)c(O)c4c3N)c(C)c2)ccc1N=Nc1ccc(N)cc1N.[Na+].[Na+] [Comparative Example 2, C.I. Direct Black 154, reference compound] | 1.70 | 2.47 | 3.60 | 0.43 | 0.43 | 0.78 | 0.94 | 1.11 | 0.72 | 0.83
